{"source": "paper PMC7280502", "about": "“Structure and mechanism of the Nap adhesion complex from the human pathogen Mycoplasma genitalium” (Nature Communications, 2020)", "molecules": {"B1": {"name": "full-length P110 with a 6xHistag insertion (P110His strain) (protein, UniProt P22747 26-1053)", "chain": "NTFLVKEDSKNVTAYTPFATPITDSKSDLVSLAQLDSSYQIADQTIHNTNLFVLFKSRDVKVKYESSGSNNISFDSTSQGEKPSYVVEFTNSTNIGIKWTMVKKYQLDVPNVSSDMNQVLKNLILEQPLTKYTLNSSLAKEKGKTQREVHLGSGQANQWTSQRNQHDLNNNPSPNASTGFKLTTGNAYRKLSESWPIYEPIDGTKQGKGKDSSGWSSTEENEAKNDAPSVSGGGSSSGTFNKYLNTKQALESIGILFDDQTPRNVITQLYYASTSKLAVTNNHIVVMGNSFLPSMWYWVVERSAQENASNKPTWFANTNLDWGEDKQKQFVENQLGYKETTSTNSHNFHSKSFTQPAYLISGIDSVNDQIIFSGFKAGSVGYDSSSSSSSSSSSSTKDQALAWSTTTSLDSKTGYKDLVTNDTGLNGPINGSFSIQDTFSFVVPYSGNHTNNGTTGPIKTAYPVKKDQKSTVKINSLINATPLNSYGDEGIGVFDALGLNYNFKSNQERLPSRTDQIFVYGIVSPNELRSAKSSADSTGSDTKVNWSNTQSRYLPVPYNYSEGIIDADGFKRPENRGASVTTFSGLKSIAPDGFANSIANFSVGLKAGIDPNPVMSGKKANYGAVVLTRGGVVRLNFNPGNDSLLSTTDNNIAPISFSFTPFTAAESAVDLTTFKEVTYNQESGLWSYIFDSSLKPSHDGKQTPVTDNMGFSVITVSRTGIELNQDQATTTLDVAPSALAVQSGIQSTTQTLTGVLPLSEEFSAVIAKDSDQNKIDIYKNNNGLFEIDTQLSNSVATNNGGLAPSYTENRVDAWGKVEFADNSVLQARNLVDKTVDEIINTPEILNSFFRFTPAFEDQKATLVATKQSDTSLSVSPRIQFLDGNFYDLNSTIAGVPLNIGFPSRVFAGFAALPAWVIPVSVGSSVGILFILLVLGLGIGIPMYRVRKLQDASFVNVFKKVDTLTTAVGSVYKKIITQTGVVKKAPSALKAANPSVKKPAAFLKPPVQPPSKPEGEQKAVEVKSEETKS"}, "B2": {"name": "P110 in situ on M. genitalium G37 cells (protein, UniProt P22747 26-1053)", "chain": "B1 chain"}}, "key": {"[1]": {"molecular_target": "P140–P110 heterodimer of the in situ Nap complex (Mycoplasma genitalium G37 (endogenous)) (UniProt P20796)", "test": "cryo-electron tomography with sub-tomogram averaging; in situ Nap on mildly lysed M. genitalium G37 ghost cells; 15 Å; rigid-body fitting of P110 alone and P140 alone; open conformation"}, "[2]": {"molecular_target": "P140–P110 heterodimer of the extracellular regions (P140 residues 23–1351 and P110 residues 23–938) (Mycoplasma genitalium (strain G37)) (UniProt P20796)", "test": "SEC-MALS; Superdex 200 increase 10/300 GL, 50 mM Tris pH 7.4, 150 mM NaCl; 150 µl of P140, P110 and P140–P110 at 0.6, 2 and 0.5 mg/ml; both purified"}, "[3]": {"molecular_target": "T1, full-length P140 (Mycoplasma genitalium G37 (endogenous)) (UniProt P20796)", "T1 sequence": "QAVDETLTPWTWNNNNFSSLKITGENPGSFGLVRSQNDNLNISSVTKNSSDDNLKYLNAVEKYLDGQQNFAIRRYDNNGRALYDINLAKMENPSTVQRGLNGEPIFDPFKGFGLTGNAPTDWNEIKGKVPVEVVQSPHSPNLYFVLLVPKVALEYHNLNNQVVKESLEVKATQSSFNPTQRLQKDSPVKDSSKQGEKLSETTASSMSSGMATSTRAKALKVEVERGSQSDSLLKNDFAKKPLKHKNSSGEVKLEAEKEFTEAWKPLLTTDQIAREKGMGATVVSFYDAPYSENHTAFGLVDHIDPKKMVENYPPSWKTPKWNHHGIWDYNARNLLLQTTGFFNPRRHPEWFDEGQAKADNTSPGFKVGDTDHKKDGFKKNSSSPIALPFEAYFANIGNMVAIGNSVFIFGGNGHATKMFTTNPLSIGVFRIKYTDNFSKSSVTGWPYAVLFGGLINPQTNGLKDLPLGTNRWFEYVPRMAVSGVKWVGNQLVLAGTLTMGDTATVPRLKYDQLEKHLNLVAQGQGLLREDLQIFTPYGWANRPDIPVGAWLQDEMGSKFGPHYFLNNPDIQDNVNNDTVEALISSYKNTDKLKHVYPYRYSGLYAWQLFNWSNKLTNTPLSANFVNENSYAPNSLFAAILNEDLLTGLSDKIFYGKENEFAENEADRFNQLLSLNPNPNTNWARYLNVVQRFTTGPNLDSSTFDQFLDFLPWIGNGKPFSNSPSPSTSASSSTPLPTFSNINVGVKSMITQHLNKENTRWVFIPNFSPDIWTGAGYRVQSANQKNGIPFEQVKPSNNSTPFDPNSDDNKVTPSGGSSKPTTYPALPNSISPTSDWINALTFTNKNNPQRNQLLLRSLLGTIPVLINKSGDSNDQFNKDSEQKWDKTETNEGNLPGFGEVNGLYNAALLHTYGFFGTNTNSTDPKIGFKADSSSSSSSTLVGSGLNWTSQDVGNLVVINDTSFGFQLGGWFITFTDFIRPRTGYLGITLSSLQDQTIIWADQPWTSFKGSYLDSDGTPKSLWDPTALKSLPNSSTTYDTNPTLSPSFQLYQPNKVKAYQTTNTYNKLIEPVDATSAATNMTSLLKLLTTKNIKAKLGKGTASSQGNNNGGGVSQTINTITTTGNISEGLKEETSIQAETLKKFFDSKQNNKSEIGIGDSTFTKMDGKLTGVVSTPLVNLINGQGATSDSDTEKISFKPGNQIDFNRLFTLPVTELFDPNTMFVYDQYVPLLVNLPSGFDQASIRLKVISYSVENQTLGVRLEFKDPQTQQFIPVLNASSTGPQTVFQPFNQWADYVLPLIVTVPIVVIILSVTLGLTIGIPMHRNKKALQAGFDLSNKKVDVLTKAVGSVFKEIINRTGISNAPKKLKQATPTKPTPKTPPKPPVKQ", "test": "cryo-EM structure; single-particle cryo-EM of the Nap complex purified from the M. genitalium P110His strain in octylglucoside, 25 μg/ml; 9.8 Å; rigid-body fitting of P140 alone and P110 alone; closed conformation; both purified"}, "[4]": {"molecular_target": "T1, full-length P140 (Mycoplasma genitalium G37 (endogenous))", "test": "cryo-electron tomography with sub-tomogram averaging; in situ Nap on mildly lysed M. genitalium G37 ghost cells; 15 Å; rigid-body fitting of P110 alone and P140 alone; open conformation"}}, "note": "No constants are given. Whether binding was seen depends on the method and setting. Some binding calls cover weakened binding; strength is not graded here. For some of these results: Where a sequence is shown, tags or fusion partners need not be part of it."}
{"molecule": "P140–P110 heterodimer of the in situ Nap complex (from UniProt P20796 59-1444; P22747 26-1053)", "values": [{"measurement": "binding", "setting": "[1]", "value": "binds"}]}
{"molecule": "P140–P110 heterodimer of the extracellular regions (P140 residues 23–1351 and P110 residues 23–938) (from UniProt P20796 23-1351; P22747 23-938) (complex)", "values": [{"measurement": "binding", "setting": "[2]", "value": "no binding (tested: 0.5 mg/ml)"}]}
{"molecule": "B1", "values": [{"measurement": "binding", "setting": "[3]", "value": "binds"}]}
{"molecule": "B2", "values": [{"measurement": "binding", "setting": "[4]", "value": "binds"}]}
